In PMC10623572, “Subtle Structural Modification of a Synthetic Cannabinoid Receptor Agonist Drastically Increases its Efficacy at the CB1 Receptor” (ACS Chemical Neuroscience, 2023):
These are yes or no findings as the source states them, for the method shown. In cells and extracts the contact can be indirect. Some results given as binding are weak or reduced against the parent protein; the word gives no strength.

The chains behind the UniProt entries cited, without tags or fusion partners.
UniProt P21554: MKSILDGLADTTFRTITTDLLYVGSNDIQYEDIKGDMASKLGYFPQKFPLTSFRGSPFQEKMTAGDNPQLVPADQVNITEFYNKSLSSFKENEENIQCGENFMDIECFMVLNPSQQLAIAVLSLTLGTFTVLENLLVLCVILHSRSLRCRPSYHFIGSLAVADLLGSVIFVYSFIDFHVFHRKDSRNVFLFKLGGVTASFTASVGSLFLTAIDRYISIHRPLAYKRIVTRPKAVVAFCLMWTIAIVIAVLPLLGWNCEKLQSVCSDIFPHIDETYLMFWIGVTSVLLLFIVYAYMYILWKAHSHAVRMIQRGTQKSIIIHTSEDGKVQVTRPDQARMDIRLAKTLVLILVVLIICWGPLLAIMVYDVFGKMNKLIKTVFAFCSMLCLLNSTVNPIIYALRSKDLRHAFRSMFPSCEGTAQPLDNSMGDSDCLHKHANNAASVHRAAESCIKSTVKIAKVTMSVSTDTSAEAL
UniProt P32121: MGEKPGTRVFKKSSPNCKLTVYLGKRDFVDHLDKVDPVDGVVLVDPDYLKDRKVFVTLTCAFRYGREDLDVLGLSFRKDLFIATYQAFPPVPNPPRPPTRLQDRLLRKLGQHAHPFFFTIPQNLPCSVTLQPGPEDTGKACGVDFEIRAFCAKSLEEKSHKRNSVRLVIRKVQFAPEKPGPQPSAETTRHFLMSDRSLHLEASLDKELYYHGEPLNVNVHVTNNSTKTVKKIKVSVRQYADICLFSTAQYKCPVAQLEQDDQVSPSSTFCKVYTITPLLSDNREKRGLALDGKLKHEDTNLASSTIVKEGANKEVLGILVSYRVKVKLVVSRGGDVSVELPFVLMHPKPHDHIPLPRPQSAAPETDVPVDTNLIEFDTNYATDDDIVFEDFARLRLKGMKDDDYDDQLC

Target: cannabinoid receptor 1, Rluc fusion (CB1R-Rluc) (UniProt P21554)
Assay: FRET or BRET; β-arrestin 2 recruitment BRET in intact HEK-293T cells in PBS: CB1R-Rluc donor, β-arrestin 2-Venus acceptor, GRK2 cotransfected; 5 μM coelenterazine H; agonist-induced (CP55940, AM2201, 5F-NNEI, 5F-SDB-006, 5F-CUMYL-PICA, 5F-MMB-PICA, 5F-MDMB-PICA, WIN55-212-2, Δ9-THC, AEA, 2AG); read at 2, 16, 30 and 44 min, 37 °C; BRET change = ratio with drug minus ratio without drug

## β-arrestin 2, Venus fusion (β-arrestin 2-Venus) (from UniProt P32121 1-409)
  binding: binds
